{"source": "PubChem BioAssay AID504774 – Drosophila RNAi Screening Center | 2011", "aim": "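Knock-downs that shift viability of MMS-exposed cells relative to untreated ones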 (primary screen)", "cell system": "Drosophila Kc167 cells", "reagents": "long dsRNA against Drosophila genes, about 0.25 µg dsRNA per well", "time to read-out": "about 6 days: 3 days knock-down, then 3 days with or without MMS", "challenge": "methyl methanesulphonate 0.004% (w/v) for 3 days after knock-down", "measured": "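ATP-dependent luminescence as a measure of live cells in MMS-exposed wells, quantile normalised within each plate, with replicate values also given as a mean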", "direction": "mean viability with MMS: higher = more surviving cells after MMS", "note": "The screen tested about 23,000 reagents; below is a random part of those with a known target gene and a result. 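Values are quantile-normalised luminescence on an arbitrary scale; higher means more cells surviving MMS.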 Not all columns of the deposit are shown."}
{"gene knocked down": "CG10959", "amplicon": "DRSC17769", "mean viability with MMS": 3.04e6}
{"gene knocked down": "CG32485", "amplicon": "DRSC22666", "mean viability with MMS": 3.37e6}
{"gene knocked down": "PH4alphaSG1 (prolyl-4-hydroxylase-alpha SG1)", "amplicon": "DRSC15080", "mean viability with MMS": 3.48e6}
{"gene knocked down": "CG8892", "amplicon": "DRSC03121", "mean viability with MMS": 3.62e6}
{"gene knocked down": "Pfdn2 (Prefoldin 2)", "amplicon": "DRSC10618", "mean viability with MMS": 3.45e6}
{"gene knocked down": "E23 (Early gene at 23)", "amplicon": "DRSC00425", "mean viability with MMS": 2.67e6}
{"gene knocked down": "E23 (Early gene at 23)", "amplicon": "DRSC00593", "mean viability with MMS": 3.42e6}
{"gene knocked down": "mud (mushroom body defect)", "amplicon": "DRSC19019", "mean viability with MMS": 3.70e6}
{"gene knocked down": "Osbp (Oxysterol binding protein)", "amplicon": "DRSC16779", "mean viability with MMS": 3.51e6}
{"gene knocked down": "CG15019", "amplicon": "DRSC08473", "mean viability with MMS": 3.44e6}
{"gene knocked down": "Lrr47 (Leucine-rich repeat 47)", "amplicon": "DRSC03365", "mean viability with MMS": 3.19e6}
{"gene knocked down": "sqz (squeeze)", "amplicon": "DRSC16980", "mean viability with MMS": 3.77e6}
{"gene knocked down": "Sting", "amplicon": "DRSC06615", "mean viability with MMS": 3.57e6}
{"gene knocked down": "CG14932", "amplicon": "DRSC02414", "mean viability with MMS": 3.40e6}
{"gene knocked down": "Naglu (N-acetyl-alpha-glucosaminidase)", "amplicon": "DRSC02267", "mean viability with MMS": 3.41e6}
{"gene knocked down": "Dronc (Death regulator Nedd2-like caspase)", "amplicon": "DRSC11231", "mean viability with MMS": 3.53e6}
{"gene knocked down": "CG13551", "amplicon": "DRSC21847", "mean viability with MMS": 3.41e6}
{"gene knocked down": "Uch (Ubiquitin carboxy-terminal hydrolase)", "amplicon": "DRSC00797", "mean viability with MMS": 3.40e6}
{"gene knocked down": "CG1116", "amplicon": "DRSC12166", "mean viability with MMS": 3.65e6}
{"gene knocked down": "CG14455", "amplicon": "DRSC11712", "mean viability with MMS": 3.44e6}
{"gene knocked down": "CNMa (CNMamide)", "amplicon": "DRSC08405", "mean viability with MMS": 3.52e6}
{"gene knocked down": "Sps2 (Selenophosphate synthetase 2)", "amplicon": "DRSC03441", "mean viability with MMS": 3.57e6}
{"gene knocked down": "BORCS6 (BLOC-1 related complex subunit 6)", "amplicon": "DRSC08514", "mean viability with MMS": 3.61e6}
{"gene knocked down": "GNBP-like3 (GNBP-like 3)", "amplicon": "DRSC06385", "mean viability with MMS": 3.50e6}
{"gene knocked down": "Root (Rootletin)", "amplicon": "DRSC15972", "mean viability with MMS": 3.72e6}
{"gene knocked down": "Rab3-GAP (Rab3 GTPase activating protein)", "amplicon": "DRSC02001", "mean viability with MMS": 3.57e6}
{"gene knocked down": "Cyp4d2 (Cytochrome P450 4d2)", "amplicon": "DRSC18458", "mean viability with MMS": 3.56e6}
{"gene knocked down": "CG4575 (retired record)", "amplicon": "DRSC18372", "mean viability with MMS": 3.50e6}

In a second layout: results already given.
| gene knocked down | amplicon | mean viability with MMS |
| --- | --- | --- |
| mud (mushroom body defect) | DRSC19019 | 3.70e6 |
| Osbp (Oxysterol binding protein) | DRSC16779 | 3.51e6 |
| CG15019 | DRSC08473 | 3.44e6 |
| Lrr47 (Leucine-rich repeat 47) | DRSC03365 | 3.19e6 |

The listing continues:
{"gene knocked down": "CG8736", "amplicon": "DRSC07255", "mean viability with MMS": 3.61e6}
{"gene knocked down": "Vti1a (Vesicle transport through interaction with t-SNAREs 1a)", "amplicon": "DRSC08563", "mean viability with MMS": 3.29e6}
{"gene knocked down": "Ir52c (Ionotropic receptor 52c)", "amplicon": "DRSC21801", "mean viability with MMS": 3.37e6}
{"gene knocked down": "CG12490", "amplicon": "DRSC04123", "mean viability with MMS": 3.70e6}
{"gene knocked down": "CG14631", "amplicon": "DRSC17792", "mean viability with MMS": 3.69e6}
{"gene knocked down": "CG14631", "amplicon": "DRSC17941", "mean viability with MMS": 3.67e6}
{"gene knocked down": "HisCl1 (Histamine-gated chloride channel subunit 1)", "amplicon": "DRSC14945", "mean viability with MMS": 3.64e6}
{"gene knocked down": "NUCB1 (Nucleobindin 1)", "amplicon": "DRSC22137", "mean viability with MMS": 3.44e6}
{"gene knocked down": "fry (furry)", "amplicon": "DRSC08993", "mean viability with MMS": 3.48e6}
{"gene knocked down": "fry (furry)", "amplicon": "DRSC10172", "mean viability with MMS": 3.45e6}
{"gene knocked down": "fry (furry)", "amplicon": "DRSC10709", "mean viability with MMS": 3.57e6}
{"gene knocked down": "fry (furry)", "amplicon": "DRSC10712", "mean viability with MMS": 3.34e6}
{"gene knocked down": "Dhc98D (Dynein heavy chain at 89D)", "amplicon": "DRSC16645", "mean viability with MMS": 3.48e6}
{"gene knocked down": "CG4957", "amplicon": "DRSC02793", "mean viability with MMS": 3.95e6}
{"gene knocked down": "CG34338", "amplicon": "DRSC17535", "mean viability with MMS": 3.49e6}
{"gene knocked down": "Obp58b (Odorant-binding protein 58b)", "amplicon": "DRSC04161", "mean viability with MMS": 3.60e6}
{"gene knocked down": "intr (intrepid)", "amplicon": "DRSC14528", "mean viability with MMS": 3.49e6}
